According to PubChem BioAssay AID624291 (National Center for Advancing Translational Sciences (NCATS), 2012):
The campaign covered roughly 350,000 compounds. About 220 (0.063%) were called active. Inconclusive means that the source gave no clear call. Such entries were picked first, then a sample of the others. Calls come from the whole dose curve; as a rule, active = well fitted activation curve with a large enough effect; inconclusive = small, poorly fitted or top-dose-only effect; inactive = no such curve, though single readings can be large or run the other way. Potencies beside an inconclusive call are fits to weak or partial responses and may not hold up.
Potency is the fitted concentration of half-maximal effect.

Assay: qHTS for Activators of Integrin-Mediated Alleviation for Muscular Dystrophy; note: nearly all actives have a fitted effect of over 60% in size;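 for activation: 100% = response of the positive control SU9516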
Conditions: alpha7betagal myoblasts, beta-gal FDG fluorescence, 48 h; activation: at 38.3 µM (top of the series)
How it was run: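 Alpha7betagal+/- myoblasts (passage 13) were plated 16-24 hr, then exposed to compounds (1:260 dilution of DMSO stock) for 48 hours at 37C. After MPER lysis, β-galactosidase reporter activity was read as FDG fluorescence (ex 480/em 540) after 30 minutes.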
In the case of `CC(C)C(=O)NCCCc1ccccc1`, the “activation” value was inactive: 16.9%. For `O=C(CCN1C(=O)c2cccc3cccc(c23)C1=O)N1CCOCC1`, the Potency was inconclusive: 0.794 µM [activator, single point]. For `COc1ccc(-n2nc3c(N4CCC(C(=O)NCc5cccc(C)c5)CC4)nnc(C)c3c2C)cc1`, the “activation” value was inactive: 1.65%. In the case of `CC1(C)Cc2c(oc3ncn4ncnc4c23)CO1`, the “activation” value was inactive: 24.8%. For `COC(=O)CN(C(=S)Nc1ccc(F)cc1)C1CC(=O)N(c2ccccc2)C1=O` (centres undefined), the Potency was inconclusive: 2.82 µM [activator, partial curve, poor fit]. In the case of `Cc1cccc(N(C)S(=O)(=O)c2ccc3c(c2)NC(=O)CC(=O)N3)c1`, the Potency was inconclusive: 2.24 µM [activator, single point]. For `COC(=O)c1cnn(-c2ccccc2)c1N`, the Potency was inconclusive: 14.1 µM [activator, single point]. For `Cc1ccc(NC(=O)/C(C#N)=C/c2ccccc2C(F)(F)F)cc1`, the “activation” value was inactive: -2.11%. With `O=C(COc1ccc(Br)cc1)Nc1ccc(S(=O)(=O)Nc2ccccn2)cc1` the Potency was inconclusive: 2.24 µM [activator, partial curve, poor fit]. With `C=CCn1c(CNC(=O)c2ccccc2F)nnc1SCc1nc2ccccc2c(=O)[nH]1` the Potency was inconclusive: 28.2 µM [activator, single point]. With `COc1ccc(C2=NOC(CNC(N)=S)C2)cc1` (centres undefined) the “activation” value was inactive: -2.87%. For `COC(=O)c1nn(-c2c(C)n(C)n(-c3ccccc3)c2=O)cc1O`, the Potency was inconclusive: 3.16 µM [activator, single point]. For `O=C(Nc1ccc(OC(F)F)c(Cl)c1)c1ccccn1`, the Potency was inconclusive: 28.2 µM [activator, single point]. In the case of `CC1CCCC(NC(=O)CSC2CCCCC2)C1C` (centres undefined), the “activation” value was inactive: -18%. For `COc1ccc2cc(-c3ccccc3)c(=O)oc2c1`, the Potency was inconclusive: 5.01 µM [activator, full curve, poor fit]. For `CCCCn1c(N)c(N(CC)C(=O)/C=C/c2ccco2)c(=O)[nH]c1=O`, the Potency was inconclusive: 31.6 µM [activator, single point]. For `O=[N+]([O-])c1ccc(Nc2nc(Cl)nc(NCCO)n2)cc1`, the Potency was inconclusive: 2.51 µM [activator, partial curve, poor fit]. With `COc1ccc(NC(=O)C2CCCN2C(=O)NCc2ccccc2)c(OC)c1` (centres undefined) the “activation” value was inactive: 2.06%. In the case of `O=C(NCCCc1ccccc1)c1ccc(F)cc1`, the “activation” value was inactive: 24.4%. For `Cc1cc2[nH]c(=S)[nH]c2cc1C`, the “activation” value was inactive: 6.04%. With `C/C(=N\OCC(=O)OCC(=O)NCc1ccccc1)c1ccc2c(c1)OCO2` the Potency was inconclusive: 28.2 µM [activator, single point]. In the case of `CC1(C)C(=O)Nc2ccccc2N1C(=O)COC(=O)Cc1ccc(Cl)c(Cl)c1`, the Potency was inconclusive: 2.51 µM [activator, full curve, poor fit]. For `Oc1cccc(C(O)CNCc2ccc(-c3ccccc3)cc2)c1` (centres undefined), the Potency was inconclusive: 0.501 µM [activator, partial curve, poor fit]. With `O=[N+]([O-])c1ccc(N=Nc2ncc[nH]2)cc1` the “activation” value was inactive: 20.8%. For `COc1ccc(Nc2ncnc3sccc23)cc1OC`, the Potency was inconclusive: 1.26 µM [activator, single point]. With `Cc1c(Br)c(C(F)(F)F)nn1CC(=O)NCC1CCCO1` (centres undefined) the Potency was inconclusive: 4.47 µM [activator, single point]. In the case of `CCCCn1c(N)c(N(C)C(=O)c2c(C)nn(-c3ccccc3)c2C)c(=O)[nH]c1=O`, the Potency was inconclusive: 31.6 µM [activator, single point]. With `CCc1nc2ccc(C(=O)N3CCN(c4cccc(Cl)c4)CC3)cc2nc1CC` the Potency was inconclusive: 0.794 µM [activator, single point]. With `CCN1CCN(CC(=O)Nc2nc3ccc(C)cc3s2)CC1` the “activation” value was inactive: -36.1%. For `O=C(Nc1ccc2ccccc2c1)N1CCCN(CCOc2ccccc2)CC1`, the activation was inconclusive: -62.7% [activator]. With `CC(C)N1CCc2c(sc(NC(=O)c3ccc4ccccc4c3)c2C(N)=O)C1` the “activation” value was inactive: -63.8%. In the case of `O=S(=O)(c1ccc(SCCOc2ccc(Cl)cc2)nc1)N1CCCC1`, the Potency was inconclusive: 7.94 µM [activator, partial curve, poor fit]. With `O=C(c1cccc(S(=O)(=O)N2CCN(c3ccc(F)cc3)CC2)c1)N1CCCCCCC1` the “activation” value was inactive: -40.9%. For `CCN(CC(=O)NCc1cccs1)C(=O)/C=C/c1ccc(F)cc1`, the “activation” value was inactive: 3.54%. For `c1cncc(CNCc2ccco2)c1`, the Potency was inconclusive: 3.55 µM [activator, single point]. In the case of `O=C(O)c1cccc(NS(=O)(=O)c2ccc3c(c2)OCCCO3)c1`, the Potency was inconclusive: 2 µM [activator, full curve, poor fit]. For `CSCc1ccc(C(=O)N2CCCC(Nc3ccc(F)cc3)C2)o1` (centres undefined), the Potency was inconclusive: 1 µM [activator, full curve, poor fit]. For `Nc1nonc1-n1nnc(C(=O)N/N=C/c2cccnc2)c1-c1ccccc1`, the Potency was inconclusive: 2.51 µM [activator, partial curve, poor fit]. In the case of `COc1cccc(CNCc2ccc(OC)c3ccccc23)c1OC`, the Potency was inconclusive: 1.78 µM [activator, partial curve, poor fit]. With `COc1cccc(C(=O)O/N=C(\N)CS(=O)(=O)c2ccccc2)c1` the Potency was inconclusive: 3.16 µM [activator, single point]. With `COC(=O)NNC(=S)Nc1cc(OC)ccc1OC` the “activation” value was inactive: -5.7%. In the case of `CCCc1nc(NCCCOCC)c2nnn(Cc3ccccc3)c2n1`, the “activation” value was inactive: 0.235%. With `COc1ccc(NC(=O)NC2CCCc3ccccc32)cc1OC` (centres undefined) the Potency was inconclusive: 3.55 µM [activator, single point]. For `Cc1ccc(C(=O)Nc2nnc(S(=O)(=O)Nc3ccccc3C)s2)cc1C`, the “activation” value was inactive: 18.2%. For `Cc1ccc(NC(=O)CNCc2ccccc2Cl)cc1S(=O)(=O)N(C)C`, the Potency was inconclusive: 5.01 µM [activator, single point]. With `Cc1ccc(C(=O)NCCN2CCOCC2)cc1` the “activation” value was inactive: 3.27%. With `CC(=O)N1CCn2c3c(c4cc(C)ccc42)CCCC31` (centres undefined) the Potency was inconclusive: 2.82 µM [activator, single point]. For `CC(C)c1nc2oc3c(N4CCN(C)CC4)ncnc3c2c2c1CCC2`, the Potency was inconclusive: 11.2 µM [activator, single point]. For `COc1ccccc1C(=O)Nc1ccnn1C1CCN(CCCc2ccccc2)CC1`, the Potency was inconclusive: 5.01 µM [activator, single point]. In the case of `Cc1ccc(-n2nnc3c(=O)oc4ccccc4c32)cc1`, the “activation” value was inactive: -60.2%. For `CN(C)C1(CNCC(O)c2ccccc2)CCCCC1` (centres undefined), the Potency was inconclusive: 14.1 µM [activator, single point]. For `Cc1ccc(C(=O)CC(=O)c2ccccc2)cc1`, the Potency was inconclusive: 3.55 µM [activator, single point]. With `Cc1ccc([N+](=O)[O-])cc1NC(=S)NC(=O)c1c(Cl)cnn1C` the Potency was inconclusive: 28.2 µM [activator, single point]. With `COc1ccc(N2CC(C(=O)Nc3cccc(S(=O)(=O)N4CCCC4)c3)CC2=O)c(OC)c1` (centres undefined) the Potency was inconclusive: 0.501 µM [activator, full curve, poor fit]. In the case of `C/C(Cn1cnc([N+](=O)[O-])n1)=N\NC(=O)c1ccccc1O`, the “activation” value was inactive: 7.36%. In the case of `COc1cc(OC)cc(C(=O)NCC(=O)OCC(=O)N2CCc3ccccc32)c1`, the Potency was inconclusive: 7.94 µM [activator, single point]. With `O=C(NCCCN1CCOCC1)c1cc(-c2ccc(Br)cc2)on1` the Potency was inconclusive: 1 µM [activator, full curve, poor fit]. For `Cc1ccn2cc(-c3cccc(NC(=O)CCC(=O)O)c3)nc2c1`, the “activation” value was inactive: -0.246%. In the case of `COc1cc(C(=O)Nc2ccc(C)cn2)ccc1OCC(=O)N1CCOCC1`, the “activation” value was inactive: -4.61%. With `COc1ccc(C(=O)CC(=O)C(=O)Nc2ccc(Cl)cc2)cc1` the “activation” value was inactive: -28.3%. With `COc1ccc(/C(C)=N/NC(=O)CNC(=O)C(c2ccccc2)c2ccccc2)c(OC)c1` the Potency was inconclusive: 7.08 µM [activator, partial curve]. With `O=C(C1=NN[C@@H]2C(=O)N(Cc3ccccc3)C(=O)[C@H]12)c1ccc([N+](=O)[O-])cc1` the Potency was inconclusive: 1.26 µM [activator, partial curve, poor fit]. In the case of `CC(=O)Nc1ccc(NC(=O)c2nccnc2C(=O)O)cn1`, the Potency was inconclusive: 5.01 µM [activator, single point]. In the case of `O=C(Nc1ccc(Cl)c(S(=O)(=O)N2CCOCC2)c1)c1cn2ccccc2n1`, the “activation” value was inactive: 18.1%. With `O=C(COC(=O)c1cc2ccccc2oc1=O)Nc1ccc(F)cc1F` the Potency was active: 4.47 µM. In the case of `CN(C)c1ccc(P(=O)(OC2CCCCC2)C(O)c2ccccn2)cc1` (centres undefined), the Potency was inconclusive: 3.55 µM [activator, single point]. With `CS(=O)(=O)Nc1ccccc1C(=O)NC1CC2CCC1C2` (centres undefined) the “activation” value was inactive: -6.03%. In the case of `Cc1cc(SCC(=O)NC2(C#N)CCCCC2)nc2c(C)cccc12`, the “activation” value was inactive: -8.63%. In the case of `CC(O)CNc1ncnc2cc(-c3ccc(F)cc3)sc12` (centres undefined), the Potency was inconclusive: 10 µM [activator, single point]. For `N#Cc1ccsc1NC(=O)CN1CCOCC1`, the Potency was inconclusive: 1.12 µM [activator, partial curve, poor fit]. For `CCOC(=O)CCCCC(=O)c1[nH]c(=O)[nH]c1Cn1ccnc1`, the “activation” value was inactive: 12.1%. For `Cc1nc(SCc2ccc(C(=O)O)cc2)nc2c1CCCC2`, the Potency was inconclusive: 3.98 µM [activator, partial curve, poor fit]. For `COc1ccccc1N1CCN(C(CNS(=O)(=O)c2ccccc2)c2cccnc2)CC1` (centres undefined), the Potency was inconclusive: 5.01 µM [activator, single point]. With `Cc1cccnc1NC(=O)CN1C(=O)NC(C)(c2ccc3ccccc3c2)C1=O` (centres undefined) the “activation” value was inactive: 8.63%.
